Measurements from article PMC7102948.
Construct, isoform or probe ends are uncertain for at least one entry. The comparison behind a weaker result is the experiment's own reference, which may not be listed here. At least one verdict rests on a figure or table, not on a statement of the authors. Protein sequences can lack the tags named with them.

Tests used:
6xHis-dsRBD12 = target: T1, 6xHis-dsRBD12 (UniProt O04492); assay: EMSA; details: 5 mM Mg2+, did not bind efficiently; 83 mM Tris pH 8 (printed 'Tris pH 8, 83 mM'), 100 mM NaCl, 66 mM KCl, 5 mM MgCl2, 5 mM DTT, 25 C, 30 min; 4% TBE gel run cold; recombinant protein; protein details: N-terminal 6xHis; label: 32P 5'-end
T1 sequence (looked up, limits assumed): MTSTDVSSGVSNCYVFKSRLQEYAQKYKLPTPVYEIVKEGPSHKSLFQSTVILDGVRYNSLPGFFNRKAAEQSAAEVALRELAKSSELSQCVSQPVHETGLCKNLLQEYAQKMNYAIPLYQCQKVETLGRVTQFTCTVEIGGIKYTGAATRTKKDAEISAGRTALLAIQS

[1] = target: T2, GST-AtHYL1-6xHis (Arabidopsis thaliana Col-0) (UniProt O04492); assay: EMSA; details: 5 mM Mg2+; 83 mM Tris pH 8 (printed 'Tris pH 8, 83 mM'), 100 mM NaCl, 66 mM KCl, 5 mM MgCl2, 5 mM DTT, 25 C, 30 min; 4% TBE gel run cold; recombinant protein; protein details: N-terminal GST, C-terminal 6xHis; label: 32P 5'-end
T2 sequence (looked up, limits assumed): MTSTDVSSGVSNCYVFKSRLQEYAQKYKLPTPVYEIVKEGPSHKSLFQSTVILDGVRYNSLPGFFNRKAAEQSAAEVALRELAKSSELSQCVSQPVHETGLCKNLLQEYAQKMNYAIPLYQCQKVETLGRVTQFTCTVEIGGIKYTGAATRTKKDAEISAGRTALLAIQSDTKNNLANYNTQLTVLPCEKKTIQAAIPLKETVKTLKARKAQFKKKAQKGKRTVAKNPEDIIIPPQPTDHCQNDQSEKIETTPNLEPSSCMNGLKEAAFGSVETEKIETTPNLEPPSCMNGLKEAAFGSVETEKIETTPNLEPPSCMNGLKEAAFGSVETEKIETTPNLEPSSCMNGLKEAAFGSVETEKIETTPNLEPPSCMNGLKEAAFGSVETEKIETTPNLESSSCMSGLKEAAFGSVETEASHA

Sequence: UCGAACAGGGCGCCAGUGCCC / GGGCACUGCCGCCCUGUUCGA [amiR72 duplex (71% GC)]
- binding result (6xHis-dsRBD12): binds more weakly
- binding result [1]: binds more weakly

Sequence: UCGAACUAGGUCUCAGUGCUC / GAGCACUGUGACCUAGUUCGA [amiR52 duplex]
- binding result (6xHis-dsRBD12): binds more weakly
- binding result [1]: binds

Sequence: UCGAAUAAGAUACUAUACGUU / AACGUAUACUAUCUUAUUCGA [amiR28 duplex]
- binding result (6xHis-dsRBD12): binds more weakly
- binding result [1]: binds more weakly

Sequence: UUAUUAAUUUCGGCCCCGGCG / CGCCGGGCCCGAAAUUAAUAA [amiRscr52 duplex]
- binding result (6xHis-dsRBD12): binds more weakly
- binding result [1]: binds more weakly
